The target of assay [1] is T1, myc-tagged full-length RBP2 (RIM-binding protein 2), residues 1–1,068 (rat) (UniProt Q9JIR1).
T1 sequence: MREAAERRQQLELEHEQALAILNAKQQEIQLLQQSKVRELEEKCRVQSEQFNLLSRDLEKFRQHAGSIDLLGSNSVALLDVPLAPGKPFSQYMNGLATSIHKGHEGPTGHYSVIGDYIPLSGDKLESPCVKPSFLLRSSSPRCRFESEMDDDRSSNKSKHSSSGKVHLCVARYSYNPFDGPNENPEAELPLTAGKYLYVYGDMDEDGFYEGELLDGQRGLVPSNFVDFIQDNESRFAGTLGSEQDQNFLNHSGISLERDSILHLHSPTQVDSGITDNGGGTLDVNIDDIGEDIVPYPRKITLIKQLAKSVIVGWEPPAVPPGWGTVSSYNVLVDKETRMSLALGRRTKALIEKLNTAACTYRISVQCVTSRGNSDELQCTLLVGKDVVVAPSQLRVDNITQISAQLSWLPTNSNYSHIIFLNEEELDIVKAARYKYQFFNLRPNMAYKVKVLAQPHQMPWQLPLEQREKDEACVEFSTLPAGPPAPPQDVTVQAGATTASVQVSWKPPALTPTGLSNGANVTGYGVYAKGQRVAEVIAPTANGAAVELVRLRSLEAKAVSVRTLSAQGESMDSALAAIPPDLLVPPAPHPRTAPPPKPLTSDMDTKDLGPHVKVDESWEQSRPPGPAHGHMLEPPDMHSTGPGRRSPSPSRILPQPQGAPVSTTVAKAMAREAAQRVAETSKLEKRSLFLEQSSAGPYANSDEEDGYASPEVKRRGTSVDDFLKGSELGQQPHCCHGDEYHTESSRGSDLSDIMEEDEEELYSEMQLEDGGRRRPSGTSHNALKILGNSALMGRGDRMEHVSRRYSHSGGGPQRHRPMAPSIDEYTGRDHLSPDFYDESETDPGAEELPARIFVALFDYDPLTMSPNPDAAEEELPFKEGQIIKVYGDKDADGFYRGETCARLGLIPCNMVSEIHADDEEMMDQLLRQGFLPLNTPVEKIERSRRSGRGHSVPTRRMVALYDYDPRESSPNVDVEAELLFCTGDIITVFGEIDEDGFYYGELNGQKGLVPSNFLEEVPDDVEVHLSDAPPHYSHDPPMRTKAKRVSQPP
The assay can be described thus: co-IP; transfected HEK293T cells co-expressing full-length RBP2 with Cav2.2 and BKα-channels.

By UniProt entry, the sequences of proteins in these tests, tags left out. Where a name states a change or a piece, a line headed by the entry shows the natural chain unless it says otherwise.
UniProt Q62976: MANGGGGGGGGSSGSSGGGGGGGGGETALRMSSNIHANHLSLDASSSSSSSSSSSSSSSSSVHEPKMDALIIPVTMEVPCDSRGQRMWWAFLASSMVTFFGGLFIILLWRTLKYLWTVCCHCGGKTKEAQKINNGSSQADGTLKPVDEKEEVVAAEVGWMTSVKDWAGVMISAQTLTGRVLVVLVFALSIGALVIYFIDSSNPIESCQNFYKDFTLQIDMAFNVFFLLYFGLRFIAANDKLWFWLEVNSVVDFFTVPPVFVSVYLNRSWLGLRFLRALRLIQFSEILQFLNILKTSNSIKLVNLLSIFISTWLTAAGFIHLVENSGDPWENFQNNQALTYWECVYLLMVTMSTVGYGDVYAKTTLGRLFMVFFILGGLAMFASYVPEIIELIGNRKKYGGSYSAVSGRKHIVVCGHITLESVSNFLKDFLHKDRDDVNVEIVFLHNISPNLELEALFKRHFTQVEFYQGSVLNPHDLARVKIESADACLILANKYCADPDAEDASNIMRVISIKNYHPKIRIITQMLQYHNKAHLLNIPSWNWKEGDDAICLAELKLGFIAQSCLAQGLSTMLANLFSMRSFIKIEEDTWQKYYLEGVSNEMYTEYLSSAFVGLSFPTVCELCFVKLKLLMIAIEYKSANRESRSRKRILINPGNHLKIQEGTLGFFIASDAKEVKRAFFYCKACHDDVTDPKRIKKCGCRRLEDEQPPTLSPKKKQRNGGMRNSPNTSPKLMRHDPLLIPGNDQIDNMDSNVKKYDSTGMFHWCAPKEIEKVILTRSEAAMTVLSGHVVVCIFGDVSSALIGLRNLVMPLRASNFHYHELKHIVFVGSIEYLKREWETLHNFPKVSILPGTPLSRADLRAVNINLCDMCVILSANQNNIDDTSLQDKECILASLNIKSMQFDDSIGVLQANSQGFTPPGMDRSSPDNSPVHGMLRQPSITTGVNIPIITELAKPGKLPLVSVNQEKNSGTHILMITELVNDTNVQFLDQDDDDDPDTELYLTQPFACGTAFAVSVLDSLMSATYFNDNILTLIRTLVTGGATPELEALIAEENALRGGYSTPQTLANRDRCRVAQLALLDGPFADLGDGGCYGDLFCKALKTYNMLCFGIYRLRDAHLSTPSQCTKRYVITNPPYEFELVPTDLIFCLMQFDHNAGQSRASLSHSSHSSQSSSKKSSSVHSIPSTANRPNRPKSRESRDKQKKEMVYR
UniProt Q9JIR4: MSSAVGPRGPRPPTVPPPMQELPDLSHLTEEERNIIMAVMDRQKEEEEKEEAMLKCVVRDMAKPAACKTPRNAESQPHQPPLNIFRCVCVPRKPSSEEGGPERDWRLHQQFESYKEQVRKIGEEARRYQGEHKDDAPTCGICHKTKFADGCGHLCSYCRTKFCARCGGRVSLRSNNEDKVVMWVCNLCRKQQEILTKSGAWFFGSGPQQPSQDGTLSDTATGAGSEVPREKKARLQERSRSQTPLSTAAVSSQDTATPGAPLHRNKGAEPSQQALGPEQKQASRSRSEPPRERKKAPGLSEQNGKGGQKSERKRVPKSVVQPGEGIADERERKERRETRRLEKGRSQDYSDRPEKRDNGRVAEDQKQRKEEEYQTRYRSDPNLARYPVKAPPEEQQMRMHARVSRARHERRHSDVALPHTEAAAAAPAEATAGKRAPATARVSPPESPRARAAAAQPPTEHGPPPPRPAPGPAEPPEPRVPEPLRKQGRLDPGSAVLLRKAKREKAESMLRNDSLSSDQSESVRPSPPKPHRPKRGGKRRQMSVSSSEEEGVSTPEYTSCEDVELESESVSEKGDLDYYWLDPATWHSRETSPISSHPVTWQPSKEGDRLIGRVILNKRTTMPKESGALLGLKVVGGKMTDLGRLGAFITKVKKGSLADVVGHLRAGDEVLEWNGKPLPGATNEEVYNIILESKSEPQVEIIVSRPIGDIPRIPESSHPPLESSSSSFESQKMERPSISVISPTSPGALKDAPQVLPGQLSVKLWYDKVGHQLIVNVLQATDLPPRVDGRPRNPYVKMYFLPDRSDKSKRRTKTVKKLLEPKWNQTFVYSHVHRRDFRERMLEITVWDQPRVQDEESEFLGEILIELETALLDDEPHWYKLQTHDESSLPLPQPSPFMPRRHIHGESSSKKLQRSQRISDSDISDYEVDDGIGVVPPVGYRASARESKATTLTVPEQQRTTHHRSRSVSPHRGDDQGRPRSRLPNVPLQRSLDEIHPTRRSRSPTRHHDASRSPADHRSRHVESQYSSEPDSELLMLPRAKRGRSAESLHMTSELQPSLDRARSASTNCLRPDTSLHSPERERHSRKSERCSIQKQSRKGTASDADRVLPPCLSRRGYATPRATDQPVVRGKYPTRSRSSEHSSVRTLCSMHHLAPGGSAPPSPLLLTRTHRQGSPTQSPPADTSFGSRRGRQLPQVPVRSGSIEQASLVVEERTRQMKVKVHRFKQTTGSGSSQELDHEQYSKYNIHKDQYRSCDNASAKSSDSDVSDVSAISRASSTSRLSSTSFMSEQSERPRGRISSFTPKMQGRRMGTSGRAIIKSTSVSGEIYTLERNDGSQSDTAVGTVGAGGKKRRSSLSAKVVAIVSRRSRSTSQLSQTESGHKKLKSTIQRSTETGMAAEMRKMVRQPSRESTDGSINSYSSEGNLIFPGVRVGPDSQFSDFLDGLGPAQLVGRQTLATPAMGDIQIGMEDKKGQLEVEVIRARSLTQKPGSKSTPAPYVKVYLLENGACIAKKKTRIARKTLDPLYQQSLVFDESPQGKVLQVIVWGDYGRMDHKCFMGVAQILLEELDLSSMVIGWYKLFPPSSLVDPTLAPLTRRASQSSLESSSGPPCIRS
UniProt Q08460: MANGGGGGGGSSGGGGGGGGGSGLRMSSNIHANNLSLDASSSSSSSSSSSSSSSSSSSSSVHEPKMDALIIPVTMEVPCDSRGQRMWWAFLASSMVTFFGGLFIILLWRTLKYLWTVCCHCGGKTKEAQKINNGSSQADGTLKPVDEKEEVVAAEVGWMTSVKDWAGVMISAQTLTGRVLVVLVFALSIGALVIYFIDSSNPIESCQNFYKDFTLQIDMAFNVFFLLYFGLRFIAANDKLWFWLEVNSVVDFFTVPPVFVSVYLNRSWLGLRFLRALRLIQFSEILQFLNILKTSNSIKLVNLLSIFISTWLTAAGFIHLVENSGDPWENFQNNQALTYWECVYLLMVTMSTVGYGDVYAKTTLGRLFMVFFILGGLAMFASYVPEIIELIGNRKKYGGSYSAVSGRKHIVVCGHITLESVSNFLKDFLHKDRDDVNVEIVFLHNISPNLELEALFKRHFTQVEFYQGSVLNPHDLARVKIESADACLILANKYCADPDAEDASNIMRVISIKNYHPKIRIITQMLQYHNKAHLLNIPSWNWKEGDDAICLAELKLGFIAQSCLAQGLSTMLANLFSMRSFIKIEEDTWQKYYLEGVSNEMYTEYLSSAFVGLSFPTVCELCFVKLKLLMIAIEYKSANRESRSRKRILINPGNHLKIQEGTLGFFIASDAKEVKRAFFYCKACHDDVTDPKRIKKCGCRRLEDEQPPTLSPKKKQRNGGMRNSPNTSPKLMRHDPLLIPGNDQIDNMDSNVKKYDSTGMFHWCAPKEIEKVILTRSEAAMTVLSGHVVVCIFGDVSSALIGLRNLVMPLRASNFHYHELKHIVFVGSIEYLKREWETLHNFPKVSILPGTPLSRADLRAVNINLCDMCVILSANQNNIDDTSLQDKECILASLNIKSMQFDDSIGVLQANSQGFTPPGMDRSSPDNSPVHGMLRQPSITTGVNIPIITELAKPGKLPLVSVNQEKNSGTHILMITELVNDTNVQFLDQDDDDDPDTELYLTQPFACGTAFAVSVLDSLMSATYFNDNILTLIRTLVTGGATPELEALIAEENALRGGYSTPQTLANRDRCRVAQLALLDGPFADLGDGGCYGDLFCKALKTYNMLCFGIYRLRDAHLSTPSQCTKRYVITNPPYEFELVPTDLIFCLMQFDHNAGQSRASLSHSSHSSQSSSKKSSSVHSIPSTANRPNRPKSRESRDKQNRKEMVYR

In assay [2] the target is T1, myc-tagged full-length RBP2 (RIM-binding protein 2), residues 1–1,068 (rat). The assay can be described thus: co-IP; lysates of co-transfected HEK293T cells; immunoprecipitation with antibodies to GFP (YFP), RBP2 or myc; immunoblot for myc and GFP. On the technique in general: A western blot detects proteins with antibodies after separation by electrophoresis.
Assay [3] has the same target. The assay is described as follows: imaging of RBP2-dependent translocation to the plasma membrane in co-transfected cells; HEK293T cells co-transfected, analysed 24 h later; line scans and Pearson correlation of the YFP signal with nuclear DAPI.
Assay [4] has as its target T2, recombinant GST-fused fragment of RBP1 (aa 771–1,086) containing only the FN3 domains (UniProt Q9JIR0).
T2 sequence: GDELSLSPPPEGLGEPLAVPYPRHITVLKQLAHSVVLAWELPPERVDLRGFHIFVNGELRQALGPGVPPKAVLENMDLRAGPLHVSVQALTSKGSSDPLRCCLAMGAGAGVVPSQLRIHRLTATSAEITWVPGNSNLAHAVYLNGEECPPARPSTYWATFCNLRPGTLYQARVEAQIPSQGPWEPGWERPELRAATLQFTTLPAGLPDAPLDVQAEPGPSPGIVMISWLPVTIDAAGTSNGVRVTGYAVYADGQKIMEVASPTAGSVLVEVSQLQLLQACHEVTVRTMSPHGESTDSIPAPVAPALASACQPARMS
The assay can be described thus: pull-down; recombinant GST-fused FN3 fragments of RBP1 or RBP2 as bait; YFP-BKα (aa 761–1,178) from HEK293T cell lysates; only the target purified.

The target of assay [5] is T3, endogenous RBP2 of mouse brain (mouse (endogenous in brain)) (UniProt Q80U40).
T3 sequence: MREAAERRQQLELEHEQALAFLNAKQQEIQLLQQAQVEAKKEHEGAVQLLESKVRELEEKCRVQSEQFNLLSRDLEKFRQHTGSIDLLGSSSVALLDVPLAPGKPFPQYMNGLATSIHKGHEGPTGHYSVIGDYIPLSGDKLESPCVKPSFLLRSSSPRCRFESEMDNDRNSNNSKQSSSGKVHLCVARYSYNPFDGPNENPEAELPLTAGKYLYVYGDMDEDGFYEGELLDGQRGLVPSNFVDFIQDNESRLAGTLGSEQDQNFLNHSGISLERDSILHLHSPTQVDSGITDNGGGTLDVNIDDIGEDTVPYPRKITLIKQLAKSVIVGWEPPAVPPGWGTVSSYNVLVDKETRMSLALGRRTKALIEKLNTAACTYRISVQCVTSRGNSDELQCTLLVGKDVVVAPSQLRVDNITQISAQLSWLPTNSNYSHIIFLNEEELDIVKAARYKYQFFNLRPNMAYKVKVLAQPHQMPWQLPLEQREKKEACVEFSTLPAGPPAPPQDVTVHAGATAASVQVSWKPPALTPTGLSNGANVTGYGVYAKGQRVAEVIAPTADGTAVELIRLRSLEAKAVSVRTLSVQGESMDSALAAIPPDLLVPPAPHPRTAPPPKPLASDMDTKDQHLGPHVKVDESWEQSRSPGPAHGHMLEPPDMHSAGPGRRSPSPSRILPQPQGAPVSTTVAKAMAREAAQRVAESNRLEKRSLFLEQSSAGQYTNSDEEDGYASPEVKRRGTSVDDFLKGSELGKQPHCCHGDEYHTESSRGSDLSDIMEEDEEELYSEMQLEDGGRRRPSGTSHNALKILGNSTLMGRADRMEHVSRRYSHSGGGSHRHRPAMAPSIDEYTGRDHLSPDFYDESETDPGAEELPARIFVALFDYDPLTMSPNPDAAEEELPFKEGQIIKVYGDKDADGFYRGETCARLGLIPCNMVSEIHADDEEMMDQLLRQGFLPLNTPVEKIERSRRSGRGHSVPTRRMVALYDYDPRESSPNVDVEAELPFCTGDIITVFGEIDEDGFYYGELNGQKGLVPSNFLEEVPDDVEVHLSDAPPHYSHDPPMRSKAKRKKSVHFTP
The assay can be described thus: co-IP; endogenous proteins of mouse brain homogenates solubilized with Triton X-100 (1%), NP-40 (1%) or SDS (0.3%); immunoprecipitation with antibodies to RBP2 or RIMs; preimmune serum as control.

These are yes or no findings as the source states them, for the method shown. For part of these data: In cells and extracts the contact can be indirect. Some entries that bind do so weakly or less than the wild type. For part of these data: Sequences can lack the tags named with a protein.

Among the data in publication PMC6092624 are binding values, retold here.

Turning to “BKα-channels expressed in HEK293T cells (from UniProt Q62976 1-1209)”, in assay [1], the binding entry is on record as “binds”.

Turning to “Ca2+-channels (Cav2.2) expressed in HEK293T cells (from UniProt Q02294 1-2336)”, the binding result in assay [1] was “binds”.

Take “YFP-tagged RCK1-domain of BKα (residues 391–692) (from UniProt Q62976 391-692) (domain or fragment)”: the binding entry in assay [2] and in assay [3] was “binds” each time.

Regarding “YFP-tagged RCK2-domain of BKα (residues 761–1,178; from prey clone 38) (from UniProt Q62976 761-1178) (domain or fragment)”, the binding entry in assay [2], in assay [4] and in assay [3] was “binds” throughout.

Regarding “YFP-tagged full-length RIM1α (from UniProt Q9JIR4 1-1615)”, the binding result in assay [2] is “binds”.

Regarding “endogenous BKα of mouse brain (from UniProt Q08460 1-1209)”, the binding result in assay [5] is “binds”.
